The list shows a part of the results.
How the values were obtained:
Assay in all cases: log2 fold change, soluble protein after heating vs DMSO (PISA); higher = thermal stabilisation; K562 lysate, 10 uM; active = over 0.2 and 3.5 SD of the protein, either way, in both replicates (recomputed)
[1] = compound: C1=CC=C(C=C1)[C@H](COC2=CC3=C(C=C2)NC(=O)N3)NC(=O)C4=CC=CN(C4=O)CC5=CC(=C(C=C5)F)F
In short: (§1)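 Quantification was by TMTpro 16plex LC-MS/MS with equalised channel sums, applied to the supernatant after 21,000xg for 90 min. Samples were crude K562 extract at 1 mg/mL protein in PBS pH 7.4 with 1 mM MgCl2, treated with 10 μM compound for 30 min, heated for 3 min across 48°C-58°C, pooled and brought to 0.5% NP-40 at 4°C. Values are log-two fold changes in thermal stability relative to solvent controls, from duplicates.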

Amino acid sequences for entries named in this document (tags omitted). A change or cut given only in a name is not applied to a line headed by its entry.
UniProt Q9P258, whole entry, looked up: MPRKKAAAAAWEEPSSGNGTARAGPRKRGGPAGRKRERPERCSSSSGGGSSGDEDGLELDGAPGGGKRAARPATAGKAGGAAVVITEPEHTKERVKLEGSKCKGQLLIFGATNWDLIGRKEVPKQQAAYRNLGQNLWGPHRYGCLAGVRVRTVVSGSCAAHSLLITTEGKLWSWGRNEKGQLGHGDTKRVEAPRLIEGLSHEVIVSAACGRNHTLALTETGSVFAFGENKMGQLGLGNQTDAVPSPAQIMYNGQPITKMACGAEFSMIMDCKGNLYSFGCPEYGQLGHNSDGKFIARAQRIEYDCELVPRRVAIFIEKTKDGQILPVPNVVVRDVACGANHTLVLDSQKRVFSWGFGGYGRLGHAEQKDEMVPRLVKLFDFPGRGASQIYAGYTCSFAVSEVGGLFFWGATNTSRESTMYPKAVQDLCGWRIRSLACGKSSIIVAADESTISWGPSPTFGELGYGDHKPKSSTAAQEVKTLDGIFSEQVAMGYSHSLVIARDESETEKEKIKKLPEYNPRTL
UniProt Q86VR2, whole entry, looked up: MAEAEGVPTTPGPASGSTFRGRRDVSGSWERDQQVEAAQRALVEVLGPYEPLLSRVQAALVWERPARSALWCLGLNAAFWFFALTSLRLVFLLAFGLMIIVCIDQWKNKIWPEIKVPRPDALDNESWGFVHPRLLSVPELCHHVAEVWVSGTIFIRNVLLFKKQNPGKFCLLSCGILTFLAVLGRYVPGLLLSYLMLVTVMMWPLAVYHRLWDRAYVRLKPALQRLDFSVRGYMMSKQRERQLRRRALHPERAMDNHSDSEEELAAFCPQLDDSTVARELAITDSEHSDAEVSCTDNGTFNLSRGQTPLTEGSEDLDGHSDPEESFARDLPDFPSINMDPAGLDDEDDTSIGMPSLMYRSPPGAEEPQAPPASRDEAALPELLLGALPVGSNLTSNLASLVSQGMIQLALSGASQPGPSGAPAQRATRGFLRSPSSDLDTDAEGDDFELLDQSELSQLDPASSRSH
UniProt Q9Y4C8: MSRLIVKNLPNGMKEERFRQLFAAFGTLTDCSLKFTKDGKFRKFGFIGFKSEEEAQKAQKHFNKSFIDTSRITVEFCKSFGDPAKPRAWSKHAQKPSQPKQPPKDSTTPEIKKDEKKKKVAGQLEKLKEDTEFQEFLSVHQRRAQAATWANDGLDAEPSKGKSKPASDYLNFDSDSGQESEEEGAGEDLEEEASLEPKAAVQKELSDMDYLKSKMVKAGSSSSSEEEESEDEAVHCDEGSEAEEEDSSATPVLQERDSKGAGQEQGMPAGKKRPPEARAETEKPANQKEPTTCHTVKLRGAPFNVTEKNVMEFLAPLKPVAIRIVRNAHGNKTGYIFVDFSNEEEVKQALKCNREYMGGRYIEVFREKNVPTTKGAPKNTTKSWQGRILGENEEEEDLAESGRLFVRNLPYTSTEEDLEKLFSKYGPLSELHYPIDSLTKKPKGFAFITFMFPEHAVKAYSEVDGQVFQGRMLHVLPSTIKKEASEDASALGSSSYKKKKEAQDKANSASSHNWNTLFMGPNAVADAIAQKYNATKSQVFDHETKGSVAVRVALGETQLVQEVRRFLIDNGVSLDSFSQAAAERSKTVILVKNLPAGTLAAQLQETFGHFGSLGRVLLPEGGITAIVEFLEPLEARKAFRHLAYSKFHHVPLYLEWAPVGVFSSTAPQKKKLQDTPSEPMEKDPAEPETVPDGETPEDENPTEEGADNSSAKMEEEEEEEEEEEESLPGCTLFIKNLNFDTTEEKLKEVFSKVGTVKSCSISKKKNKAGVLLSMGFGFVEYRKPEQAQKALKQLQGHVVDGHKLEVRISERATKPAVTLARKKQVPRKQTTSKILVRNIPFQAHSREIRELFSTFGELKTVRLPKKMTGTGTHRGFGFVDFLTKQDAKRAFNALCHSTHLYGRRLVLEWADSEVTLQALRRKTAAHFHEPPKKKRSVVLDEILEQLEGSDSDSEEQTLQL
UniProt Q96PM5: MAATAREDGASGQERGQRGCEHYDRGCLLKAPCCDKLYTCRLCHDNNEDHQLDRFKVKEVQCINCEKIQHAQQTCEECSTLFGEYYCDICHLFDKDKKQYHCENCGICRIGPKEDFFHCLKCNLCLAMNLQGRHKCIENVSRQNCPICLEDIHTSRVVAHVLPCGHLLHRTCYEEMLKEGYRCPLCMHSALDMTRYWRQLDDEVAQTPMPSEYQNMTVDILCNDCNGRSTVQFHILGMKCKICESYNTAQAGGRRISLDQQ
UniProt Q9NW13: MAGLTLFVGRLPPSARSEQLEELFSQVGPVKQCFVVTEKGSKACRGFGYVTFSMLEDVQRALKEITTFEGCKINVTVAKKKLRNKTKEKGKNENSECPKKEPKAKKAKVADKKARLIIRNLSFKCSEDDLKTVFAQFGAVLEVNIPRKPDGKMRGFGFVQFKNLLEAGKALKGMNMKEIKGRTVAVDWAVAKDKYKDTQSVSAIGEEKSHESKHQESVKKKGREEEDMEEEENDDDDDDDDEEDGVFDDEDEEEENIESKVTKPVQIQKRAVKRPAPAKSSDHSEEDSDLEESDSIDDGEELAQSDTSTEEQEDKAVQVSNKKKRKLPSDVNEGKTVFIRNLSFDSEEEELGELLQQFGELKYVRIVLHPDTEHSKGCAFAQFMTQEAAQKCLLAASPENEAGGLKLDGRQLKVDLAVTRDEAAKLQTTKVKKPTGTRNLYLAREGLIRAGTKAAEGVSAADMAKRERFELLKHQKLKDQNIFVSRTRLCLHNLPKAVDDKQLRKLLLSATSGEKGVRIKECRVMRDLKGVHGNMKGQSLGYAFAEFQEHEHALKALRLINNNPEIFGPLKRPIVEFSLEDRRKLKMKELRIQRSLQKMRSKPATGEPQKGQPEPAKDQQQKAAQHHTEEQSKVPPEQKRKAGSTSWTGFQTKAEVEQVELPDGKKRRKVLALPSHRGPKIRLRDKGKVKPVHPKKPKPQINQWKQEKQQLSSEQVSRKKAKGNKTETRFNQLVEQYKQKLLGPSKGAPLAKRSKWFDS
UniProt Q2KHR2: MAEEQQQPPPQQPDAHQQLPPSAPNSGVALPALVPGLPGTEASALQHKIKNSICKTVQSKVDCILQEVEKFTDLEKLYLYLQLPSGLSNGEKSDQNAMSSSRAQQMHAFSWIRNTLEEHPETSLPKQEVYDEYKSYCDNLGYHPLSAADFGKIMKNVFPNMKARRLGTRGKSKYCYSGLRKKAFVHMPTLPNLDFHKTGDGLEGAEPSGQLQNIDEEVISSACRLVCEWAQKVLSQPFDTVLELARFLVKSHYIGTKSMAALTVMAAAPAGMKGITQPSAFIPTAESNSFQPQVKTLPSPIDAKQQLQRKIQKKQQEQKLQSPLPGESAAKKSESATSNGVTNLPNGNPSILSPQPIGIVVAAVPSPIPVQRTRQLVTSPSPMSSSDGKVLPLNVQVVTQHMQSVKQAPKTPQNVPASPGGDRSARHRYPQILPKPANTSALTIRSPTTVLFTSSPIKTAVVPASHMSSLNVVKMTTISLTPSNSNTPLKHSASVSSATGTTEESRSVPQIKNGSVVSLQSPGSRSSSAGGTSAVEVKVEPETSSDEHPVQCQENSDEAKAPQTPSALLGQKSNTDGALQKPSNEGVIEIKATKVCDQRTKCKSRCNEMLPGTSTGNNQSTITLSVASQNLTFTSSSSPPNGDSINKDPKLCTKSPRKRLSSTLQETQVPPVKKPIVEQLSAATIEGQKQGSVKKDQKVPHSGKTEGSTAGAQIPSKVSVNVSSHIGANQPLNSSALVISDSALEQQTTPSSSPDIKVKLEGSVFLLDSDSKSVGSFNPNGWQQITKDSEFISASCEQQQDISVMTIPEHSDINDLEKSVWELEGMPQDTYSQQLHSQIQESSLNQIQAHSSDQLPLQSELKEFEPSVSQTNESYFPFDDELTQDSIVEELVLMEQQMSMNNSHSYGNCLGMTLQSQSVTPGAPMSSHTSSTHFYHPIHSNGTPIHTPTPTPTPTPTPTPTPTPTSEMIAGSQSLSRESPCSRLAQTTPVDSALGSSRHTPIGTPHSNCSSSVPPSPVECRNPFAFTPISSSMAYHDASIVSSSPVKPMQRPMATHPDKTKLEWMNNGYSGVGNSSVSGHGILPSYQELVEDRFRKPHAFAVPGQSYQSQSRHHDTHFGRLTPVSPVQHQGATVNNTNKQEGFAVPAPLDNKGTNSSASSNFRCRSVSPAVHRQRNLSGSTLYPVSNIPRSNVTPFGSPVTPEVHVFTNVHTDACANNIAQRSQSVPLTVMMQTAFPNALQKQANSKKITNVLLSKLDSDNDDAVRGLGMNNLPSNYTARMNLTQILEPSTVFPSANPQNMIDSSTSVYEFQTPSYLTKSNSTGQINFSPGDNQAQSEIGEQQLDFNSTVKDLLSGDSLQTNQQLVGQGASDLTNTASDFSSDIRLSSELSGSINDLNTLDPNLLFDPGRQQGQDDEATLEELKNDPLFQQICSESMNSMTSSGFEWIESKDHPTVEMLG
UniProt Q9Y3B8: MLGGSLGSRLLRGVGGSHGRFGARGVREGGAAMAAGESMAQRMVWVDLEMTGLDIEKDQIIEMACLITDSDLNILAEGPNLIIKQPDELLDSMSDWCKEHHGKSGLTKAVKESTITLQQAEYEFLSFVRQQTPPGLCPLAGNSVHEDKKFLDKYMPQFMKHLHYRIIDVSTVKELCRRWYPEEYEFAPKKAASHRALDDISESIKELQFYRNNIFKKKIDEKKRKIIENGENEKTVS
UniProt Q14498: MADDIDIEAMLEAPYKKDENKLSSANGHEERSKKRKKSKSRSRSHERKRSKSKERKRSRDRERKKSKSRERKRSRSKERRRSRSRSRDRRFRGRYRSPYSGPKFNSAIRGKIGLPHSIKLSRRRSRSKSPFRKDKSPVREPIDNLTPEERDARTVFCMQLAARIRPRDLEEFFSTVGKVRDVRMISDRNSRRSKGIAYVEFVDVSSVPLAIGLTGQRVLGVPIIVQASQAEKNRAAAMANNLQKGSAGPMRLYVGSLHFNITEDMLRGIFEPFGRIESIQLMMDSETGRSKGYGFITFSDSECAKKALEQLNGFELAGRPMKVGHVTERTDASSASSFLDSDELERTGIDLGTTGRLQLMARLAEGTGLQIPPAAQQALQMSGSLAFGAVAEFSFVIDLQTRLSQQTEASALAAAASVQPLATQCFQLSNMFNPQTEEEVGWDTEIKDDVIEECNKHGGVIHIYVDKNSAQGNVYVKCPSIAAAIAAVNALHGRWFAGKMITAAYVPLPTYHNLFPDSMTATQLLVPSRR
UniProt Q9GZR2: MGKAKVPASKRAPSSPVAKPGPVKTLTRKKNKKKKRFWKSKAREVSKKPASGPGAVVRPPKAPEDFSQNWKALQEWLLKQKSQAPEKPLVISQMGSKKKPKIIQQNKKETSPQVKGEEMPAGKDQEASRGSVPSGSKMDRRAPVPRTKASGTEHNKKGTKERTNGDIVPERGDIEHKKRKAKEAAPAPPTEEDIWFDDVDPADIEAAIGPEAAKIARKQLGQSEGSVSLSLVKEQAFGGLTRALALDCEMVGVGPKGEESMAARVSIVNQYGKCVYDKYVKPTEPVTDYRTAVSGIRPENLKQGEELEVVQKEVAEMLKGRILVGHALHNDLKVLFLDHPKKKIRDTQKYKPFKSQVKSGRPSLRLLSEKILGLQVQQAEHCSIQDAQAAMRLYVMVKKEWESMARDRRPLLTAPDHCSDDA
UniProt Q96D15: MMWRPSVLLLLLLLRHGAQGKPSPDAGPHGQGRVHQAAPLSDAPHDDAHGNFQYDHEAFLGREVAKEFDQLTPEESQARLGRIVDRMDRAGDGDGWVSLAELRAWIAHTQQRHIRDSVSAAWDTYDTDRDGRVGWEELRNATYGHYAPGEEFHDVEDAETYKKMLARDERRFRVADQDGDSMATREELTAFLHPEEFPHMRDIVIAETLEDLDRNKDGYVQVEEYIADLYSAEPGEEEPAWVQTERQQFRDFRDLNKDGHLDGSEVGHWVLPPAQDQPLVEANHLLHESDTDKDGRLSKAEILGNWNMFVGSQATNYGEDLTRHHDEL
UniProt A6NED2: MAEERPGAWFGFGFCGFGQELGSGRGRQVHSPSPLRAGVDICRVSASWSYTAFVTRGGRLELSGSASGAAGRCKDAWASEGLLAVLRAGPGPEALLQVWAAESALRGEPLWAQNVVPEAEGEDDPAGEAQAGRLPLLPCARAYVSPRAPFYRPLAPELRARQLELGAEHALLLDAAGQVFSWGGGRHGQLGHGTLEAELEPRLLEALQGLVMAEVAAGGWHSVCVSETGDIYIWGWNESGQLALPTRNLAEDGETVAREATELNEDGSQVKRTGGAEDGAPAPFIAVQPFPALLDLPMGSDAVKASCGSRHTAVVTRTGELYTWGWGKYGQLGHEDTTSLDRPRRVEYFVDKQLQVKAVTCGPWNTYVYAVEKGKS
UniProt Q9Y580: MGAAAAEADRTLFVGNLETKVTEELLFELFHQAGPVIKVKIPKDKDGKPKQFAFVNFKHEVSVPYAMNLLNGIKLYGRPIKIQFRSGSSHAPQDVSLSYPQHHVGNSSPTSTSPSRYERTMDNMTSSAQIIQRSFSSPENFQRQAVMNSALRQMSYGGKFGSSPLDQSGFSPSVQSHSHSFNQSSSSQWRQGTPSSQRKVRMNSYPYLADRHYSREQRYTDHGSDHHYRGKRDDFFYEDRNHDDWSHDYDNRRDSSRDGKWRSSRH

[2] = compound: CC1=C(SC2=C1C(=N[C@H](C3=NN=C(N32)C)CC(=O)N)C4=CC=C(C=C4)Cl)C
In short: as §1

[3] = compound: CC1=C2C(=CC=C1)N=C(N(C2=O)C3=CC=CC=C3C)CN4C=NC5=C(N=CN=C54)N
In short: as §1

[4] = compound: Cc1sc2c(c1C)C(c1ccc(Cl)cc1)=N[C@@H](CC(=O)OC(C)(C)C)c1nnc(C)n1-2
In short: as §1

[5] = compound: c1ccc([C@@H]2C[C@H]2NC2CCNCC2)cc1
In short: as §1

Measured: log2 fold change

RCC2 (UniProt Q9P258)
inactive: [1] 0.004 | [2] -0.009 | [3] 0.008 | [4] 0.012 | [5] 0.015

RBM33 (UniProt Q96EV2)
inactive: [1] -0.028 | [2] -0.014 | [3] 0.052 | [4] -0.024 | [5] 0.025

REPIN1 isoform 4 (UniProt Q9BWE0)
inactive: [1] 0.002 | [2] 0.039 | [3] -0.014 | [4] -0.041 | [5] -0.019

RCSD1 (UniProt Q6JBY9)
inactive: [1] 0.008 | [2] 0.009 | [3] 0.009 | [4] -0.044 | [5] -0.028

RDH10 (UniProt Q8IZV5)
inactive: [1] 0.147 | [2] 0.018 | [3] 0.006 | [4] -0.051 | [5] -0.06

RETREG3 (UniProt Q86VR2)
inactive: [1] -0.155 | [2] -0.04 | [3] 0.039 | [4] 0.045 | [5] -0.045

RBIS (UniProt Q8N0T1)
inactive: [1] 0.091 | [2] -0.047 | [3] 0.056 | [4] 0.03 | [5] -0.126

RBM19 (UniProt Q9Y4C8)
inactive: [1] -0.009 | [2] 0.059 | [3] -0.095 | [4] 0.056 | [5] 0

RCAN1 (UniProt P53805)
inactive: [1] 0.141 | [2] -0.074 | [3] -0.063 | [4] -0.026 | [5] 0.026

RECQL (UniProt P46063)
inactive: [1] 0.057 | [2] -0.015 | [3] 0.006 | [4] -0.013 | [5] 0.035

RCHY1 (UniProt Q96PM5)
inactive: [1] 0.046 | [2] 0.022 | [3] 0.081 | [4] 0.082 | [5] -0.029

RBM28 (UniProt Q9NW13)
inactive: [1] -0.008 | [2] 0.017 | [3] -0.009 | [4] 0.022 | [5] 0.04

RBM27 (UniProt Q9P2N5)
inactive: [1] -0.038 | [2] 0.074 | [3] 0.043 | [4] 0.035 | [5] 0.027

RCC1 isoform 2 (UniProt P18754)
inactive: [1] 0.023 | [2] 0.026 | [3] -0.013 | [4] 0.045 | [5] 0.014

RFX7 (UniProt Q2KHR2)
inactive: [1] -0.035 | [2] 0.018 | [3] 0.134 | [4] -0.12 | [5] 0.008

RBM17 (UniProt Q96I25)
inactive: [1] -0.003 | [2] -0.004 | [3] -0.024 | [4] 0.029 | [5] 0.026

REXO2 (UniProt Q9Y3B8)
inactive: [1] 0 | [2] 0.019 | [3] -0.026 | [4] 0.014 | [5] 0

RECQL5 (UniProt O94762)
inactive: [1] -0.081 | [2] 0.014 | [3] 0.011 | [4] -0.174 | [5] 0.064

RBM39 (UniProt Q14498)
inactive: [1] -0.018 | [2] 0.018 | [3] 0.036 | [4] 0.069 | [5] 0.092

REXO4 (UniProt Q9GZR2)
inactive: [1] 0.009 | [2] -0.003 | [3] 0.029 | [4] 0.051 | [5] 0.138

RCN3 (UniProt Q96D15)
inactive: [1] 0.026 | [2] 0.011 | [3] 0.038 | [4] -0.001 | [5] 0.072

RBPJ (UniProt Q06330)
inactive: [1] 0.044 | [2] -0.013 | [3] 0.036 | [4] -0.028 | [5] 0.003

RCCD1 (UniProt A6NED2)
inactive: [1] 0.105 | [2] 0.06 | [3] -0.004 | [4] 0.002 | [5] 0.002

RBM7 (UniProt Q9Y580)
inactive: [1] 0.034 | [2] 0.025 | [3] -0.013 | [4] 0.059 | [5] 0.073

RGPD5 (UniProt Q99666)
inactive: [1] -0.025 | [2] -0.02 | [3] -0.028 | [4] 0.023 | [5] -0.064

RBSN (UniProt Q9H1K0)
inactive: [1] 0.031 | [2] 0.076 | [3] 0.087 | [4] 0.117 | [5] -0.019

RFXANK (UniProt O14593)
inactive: [1] -0.033 | [2] -0.043 | [3] -0.06 | [4] 0.022 | [5] 0.079

Fetched one by one from above (two):
RCCD1 (UniProt A6NED2)
inactive: [1] 0.105 | [2] 0.06 | [3] -0.004 | [4] 0.002 | [5] 0.002

RFXANK (UniProt O14593)
inactive: [1] -0.033 | [2] -0.043 | [3] -0.06 | [4] 0.022 | [5] 0.079

Reference: the supplement of paper PMC10849652
